Measurements: article PMC6885260
These are yes or no findings as the source states them, for the method shown. Binding seen in cells or lysates may run through a third protein. Some entries that bind do so weakly or less than the wild type.

The chains behind the UniProt entries cited, without tags or fusion partners.
UniProt P42227: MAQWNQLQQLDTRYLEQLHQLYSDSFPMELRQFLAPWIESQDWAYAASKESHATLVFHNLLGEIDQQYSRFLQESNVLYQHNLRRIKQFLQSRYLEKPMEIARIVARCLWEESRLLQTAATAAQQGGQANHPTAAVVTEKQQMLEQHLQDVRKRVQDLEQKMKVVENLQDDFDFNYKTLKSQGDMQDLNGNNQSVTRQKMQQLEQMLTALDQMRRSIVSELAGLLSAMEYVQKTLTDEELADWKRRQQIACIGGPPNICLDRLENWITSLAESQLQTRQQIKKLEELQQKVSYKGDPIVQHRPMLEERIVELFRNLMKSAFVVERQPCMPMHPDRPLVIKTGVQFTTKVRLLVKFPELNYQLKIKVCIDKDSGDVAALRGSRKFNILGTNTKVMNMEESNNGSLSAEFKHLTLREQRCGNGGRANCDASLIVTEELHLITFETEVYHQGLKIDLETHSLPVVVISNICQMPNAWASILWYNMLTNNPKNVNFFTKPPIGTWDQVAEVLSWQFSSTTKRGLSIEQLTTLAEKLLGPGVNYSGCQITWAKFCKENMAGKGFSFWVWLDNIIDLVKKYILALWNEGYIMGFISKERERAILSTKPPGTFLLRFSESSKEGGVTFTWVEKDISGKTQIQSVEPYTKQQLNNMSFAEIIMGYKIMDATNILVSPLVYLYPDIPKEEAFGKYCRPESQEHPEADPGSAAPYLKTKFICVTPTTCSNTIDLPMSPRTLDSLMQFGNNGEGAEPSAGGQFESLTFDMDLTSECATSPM

Target: T1, NOX4 (mouse (endogenous in bEnd.3)) (UniProt Q9JHI8)
T1 sequence: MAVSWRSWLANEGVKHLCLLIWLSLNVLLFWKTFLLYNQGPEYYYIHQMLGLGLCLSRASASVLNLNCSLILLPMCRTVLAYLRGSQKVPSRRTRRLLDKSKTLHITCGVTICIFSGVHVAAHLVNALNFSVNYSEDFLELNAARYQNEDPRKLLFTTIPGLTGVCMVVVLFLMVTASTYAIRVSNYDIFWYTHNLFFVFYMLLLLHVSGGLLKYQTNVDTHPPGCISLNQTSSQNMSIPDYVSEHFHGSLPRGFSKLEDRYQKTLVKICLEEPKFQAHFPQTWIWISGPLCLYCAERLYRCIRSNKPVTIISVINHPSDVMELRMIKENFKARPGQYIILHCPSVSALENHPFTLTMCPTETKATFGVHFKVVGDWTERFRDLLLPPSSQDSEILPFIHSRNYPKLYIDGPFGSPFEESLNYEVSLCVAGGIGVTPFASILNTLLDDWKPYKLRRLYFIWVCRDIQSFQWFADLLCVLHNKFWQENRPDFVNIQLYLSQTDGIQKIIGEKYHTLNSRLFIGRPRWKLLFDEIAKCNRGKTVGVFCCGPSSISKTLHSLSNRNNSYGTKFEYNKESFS
Experiment: co-IP; bEnd.3 cells after OGD and reperfusion, with or without SCM-198; lysed in RIPA buffer, precleared with normal IgG; 0.5 mg lysate protein incubated overnight at 4°C with anti-NOX4 and anti-p-STAT3, protein A/G Plus-Agarose 1 h at 4°C; western blot

binding: binds
Substance: p-STAT3 (from UniProt P42227 1-770)
